Measured values published in paper PMC6465247.
No constants are given. Whether binding was seen depends on the method and setting. Some binding calls cover weakened binding; strength is not graded here. Where a sequence is shown, tags or fusion partners need not be part of it.

Amino acid sequences for entries named in this document (tags omitted).
UniProt Q6Q1P4: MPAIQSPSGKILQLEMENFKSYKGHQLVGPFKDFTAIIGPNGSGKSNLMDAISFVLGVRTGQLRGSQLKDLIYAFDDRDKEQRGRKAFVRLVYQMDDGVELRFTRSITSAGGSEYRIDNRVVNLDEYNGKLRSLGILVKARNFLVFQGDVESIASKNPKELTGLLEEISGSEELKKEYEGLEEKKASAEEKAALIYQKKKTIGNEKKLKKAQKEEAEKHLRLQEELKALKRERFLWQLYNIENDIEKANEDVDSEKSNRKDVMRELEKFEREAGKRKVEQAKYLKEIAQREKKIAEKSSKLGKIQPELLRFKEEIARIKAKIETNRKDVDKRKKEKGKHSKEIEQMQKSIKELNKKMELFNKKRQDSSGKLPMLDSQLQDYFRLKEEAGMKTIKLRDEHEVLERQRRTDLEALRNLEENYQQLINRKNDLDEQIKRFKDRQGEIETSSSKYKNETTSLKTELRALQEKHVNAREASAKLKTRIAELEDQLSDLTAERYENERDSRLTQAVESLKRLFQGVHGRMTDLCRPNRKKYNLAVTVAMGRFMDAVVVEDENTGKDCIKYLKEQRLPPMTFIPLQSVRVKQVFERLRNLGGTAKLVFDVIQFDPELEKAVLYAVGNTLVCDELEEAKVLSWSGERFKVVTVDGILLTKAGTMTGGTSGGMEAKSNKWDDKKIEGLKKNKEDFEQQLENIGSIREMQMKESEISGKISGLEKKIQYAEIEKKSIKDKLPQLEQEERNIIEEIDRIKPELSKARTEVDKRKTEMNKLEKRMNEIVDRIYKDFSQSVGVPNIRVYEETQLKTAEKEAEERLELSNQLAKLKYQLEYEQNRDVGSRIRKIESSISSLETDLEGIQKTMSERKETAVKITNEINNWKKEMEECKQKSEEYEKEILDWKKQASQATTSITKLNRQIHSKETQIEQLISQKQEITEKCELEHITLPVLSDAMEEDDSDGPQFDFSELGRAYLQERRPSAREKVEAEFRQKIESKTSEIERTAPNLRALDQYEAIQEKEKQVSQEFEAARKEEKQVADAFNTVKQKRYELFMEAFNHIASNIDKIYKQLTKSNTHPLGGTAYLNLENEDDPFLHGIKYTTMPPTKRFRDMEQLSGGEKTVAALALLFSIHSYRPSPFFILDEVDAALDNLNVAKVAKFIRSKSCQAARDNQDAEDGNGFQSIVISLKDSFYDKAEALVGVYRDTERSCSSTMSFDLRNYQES

How the values were obtained:
Assay in all cases: two-hybrid; Matchmaker Gold system (Clontech), pGADT7-GW and pGBKT7-GW fusions co-transformed into yeast AH109; growth on SD/-Leu -Trp -His
[1] = molecular target: T1, PDS5A^1-809, yeast two-hybrid fusion (Arabidopsis thaliana) (UniProt B6EUB3)
T1 sequence: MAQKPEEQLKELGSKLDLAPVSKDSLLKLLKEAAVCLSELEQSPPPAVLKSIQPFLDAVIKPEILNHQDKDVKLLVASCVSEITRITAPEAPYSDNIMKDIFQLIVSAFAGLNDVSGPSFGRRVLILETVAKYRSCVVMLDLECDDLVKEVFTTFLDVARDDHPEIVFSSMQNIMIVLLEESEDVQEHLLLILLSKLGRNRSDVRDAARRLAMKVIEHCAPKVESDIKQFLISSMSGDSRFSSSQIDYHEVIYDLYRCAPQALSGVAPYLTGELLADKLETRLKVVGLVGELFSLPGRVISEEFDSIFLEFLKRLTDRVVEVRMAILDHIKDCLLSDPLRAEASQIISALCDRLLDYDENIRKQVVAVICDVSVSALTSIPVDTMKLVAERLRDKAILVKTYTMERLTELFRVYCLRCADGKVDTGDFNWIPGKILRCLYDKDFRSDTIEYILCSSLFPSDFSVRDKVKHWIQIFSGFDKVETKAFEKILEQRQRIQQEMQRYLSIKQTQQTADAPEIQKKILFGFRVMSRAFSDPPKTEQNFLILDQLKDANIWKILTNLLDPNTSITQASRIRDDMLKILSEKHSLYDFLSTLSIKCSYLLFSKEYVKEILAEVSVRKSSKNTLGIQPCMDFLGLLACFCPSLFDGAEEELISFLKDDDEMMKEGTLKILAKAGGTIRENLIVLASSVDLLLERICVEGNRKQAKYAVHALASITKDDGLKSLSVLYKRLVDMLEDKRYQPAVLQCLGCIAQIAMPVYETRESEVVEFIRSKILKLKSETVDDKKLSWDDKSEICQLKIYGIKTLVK

[2] = molecular target: T2, REC8, yeast two-hybrid fusion (Arabidopsis thaliana) (UniProt Q9S7T7)
T2 sequence: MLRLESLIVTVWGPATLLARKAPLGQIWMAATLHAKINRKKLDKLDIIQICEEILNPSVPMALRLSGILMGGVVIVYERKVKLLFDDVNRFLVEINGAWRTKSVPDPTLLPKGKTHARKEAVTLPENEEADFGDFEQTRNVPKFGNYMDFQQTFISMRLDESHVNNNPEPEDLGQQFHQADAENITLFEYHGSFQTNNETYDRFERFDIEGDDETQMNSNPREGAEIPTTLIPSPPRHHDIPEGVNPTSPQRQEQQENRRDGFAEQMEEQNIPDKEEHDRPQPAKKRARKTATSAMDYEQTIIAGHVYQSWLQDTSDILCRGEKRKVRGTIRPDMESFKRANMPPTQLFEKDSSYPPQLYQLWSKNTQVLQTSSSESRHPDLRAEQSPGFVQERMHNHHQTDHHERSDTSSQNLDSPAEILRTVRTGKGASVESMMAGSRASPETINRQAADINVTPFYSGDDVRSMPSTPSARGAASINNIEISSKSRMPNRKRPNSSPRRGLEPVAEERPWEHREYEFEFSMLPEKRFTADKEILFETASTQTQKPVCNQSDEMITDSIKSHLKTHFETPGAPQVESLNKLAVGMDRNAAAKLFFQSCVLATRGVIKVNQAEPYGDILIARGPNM

[3] = molecular target: T3, SCC3, yeast two-hybrid fusion (Arabidopsis thaliana) (UniProt O82265)
T3 sequence: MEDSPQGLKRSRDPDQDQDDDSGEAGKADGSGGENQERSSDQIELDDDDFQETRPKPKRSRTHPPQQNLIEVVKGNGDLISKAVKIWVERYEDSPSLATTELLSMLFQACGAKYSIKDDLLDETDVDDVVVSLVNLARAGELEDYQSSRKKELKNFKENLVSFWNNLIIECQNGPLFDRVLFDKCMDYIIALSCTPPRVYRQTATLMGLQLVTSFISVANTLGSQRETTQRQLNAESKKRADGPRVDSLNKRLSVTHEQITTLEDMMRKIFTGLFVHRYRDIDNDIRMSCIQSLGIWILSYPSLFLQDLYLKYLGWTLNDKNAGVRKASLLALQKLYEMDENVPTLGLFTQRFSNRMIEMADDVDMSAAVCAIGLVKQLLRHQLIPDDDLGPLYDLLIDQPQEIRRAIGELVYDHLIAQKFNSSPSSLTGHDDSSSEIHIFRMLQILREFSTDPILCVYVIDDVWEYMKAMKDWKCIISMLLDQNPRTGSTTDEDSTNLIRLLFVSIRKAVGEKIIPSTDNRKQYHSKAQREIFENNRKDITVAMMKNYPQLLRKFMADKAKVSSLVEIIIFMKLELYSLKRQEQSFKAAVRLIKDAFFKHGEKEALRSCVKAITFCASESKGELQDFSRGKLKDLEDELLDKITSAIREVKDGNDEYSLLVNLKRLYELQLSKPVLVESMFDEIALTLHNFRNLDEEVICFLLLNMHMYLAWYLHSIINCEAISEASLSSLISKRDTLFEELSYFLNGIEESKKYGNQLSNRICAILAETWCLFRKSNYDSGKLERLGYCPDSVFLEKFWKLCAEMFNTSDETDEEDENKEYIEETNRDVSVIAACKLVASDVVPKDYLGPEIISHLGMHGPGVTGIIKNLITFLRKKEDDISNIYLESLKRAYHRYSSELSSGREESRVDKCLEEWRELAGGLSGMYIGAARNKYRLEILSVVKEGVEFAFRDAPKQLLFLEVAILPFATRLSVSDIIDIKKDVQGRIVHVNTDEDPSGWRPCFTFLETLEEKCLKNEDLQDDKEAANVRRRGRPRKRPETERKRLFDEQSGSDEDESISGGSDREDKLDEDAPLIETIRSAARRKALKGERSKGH

[4] = molecular target: SMC1, yeast two-hybrid fusion (Arabidopsis thaliana) (UniProt Q6Q1P4)

binding [1]: binds | binding [2]: no binding | binding [3]: no binding | binding [4]: no binding
B1: SWITCH 1/DYAD (SWI1), yeast two-hybrid fusion (protein, UniProt Q9FGN8 1-639)
chain: MSSTMFVKRNPIRETTAGKISSPSSPTLNVAVAHIRAGSYYEIDASILPQRSPENLKSIRVVMVSKITASDVSLRYPSMFSLRSHFDYSRMNRNKPMKKRSGGGLLPVFDESHVMASELAGDLLYRRIAPHELSMNRNSWGFWVSSSSRRNKFPRREVVSQPAYNTRLCRAASPEGKCSSELKSGGMIKWGRRLRVQYQSRHIDTRKNKEGEESSRVKDEVYKEEEMEKEEDDDDGNEIGGTKQEAKEITNGNRKRKLIESSTERLAQKAKVYDQKKETQIVVYKRKSERKFIDRWSVERYKLAERNMLKVMKEKNAVFGNSILRPELRSEARKLIGDTGLLDHLLKHMAGKVAPGGQDRFMRKHNADGAMEYWLESSDLIHIRKEAGVKDPYWTPPPGWKLGDNPSQDPVCAGEIRDIREELASLKRELKKLASKKEEEELVIMTTPNSCVTSQNDNLMTPAKEIYADLLKKKYKIEDQLVIIGETLRKMEEDMGWLKKTVDENYPKKPDSTETPLLLEDSPPIQTLEGEVKVVNKGNQITESPQNREKGRKHDQQERSPLSLISNTGFRICRPVGMFAWPQLPALAAATDTNASSPSHRQAYPSPFPVKPLAAKRPLGLTFPFTIIPEEAPKNLFNV
